Measured values: US20070036786A1
No constants are given. Whether binding was seen depends on the method and setting. Some results given as binding are weak or reduced against the parent protein; the word gives no strength.

By UniProt entry, the sequences of proteins in these tests, tags left out. Where a name states a change or a piece, a line headed by the entry shows the natural chain unless it says otherwise.
UniProt P08637: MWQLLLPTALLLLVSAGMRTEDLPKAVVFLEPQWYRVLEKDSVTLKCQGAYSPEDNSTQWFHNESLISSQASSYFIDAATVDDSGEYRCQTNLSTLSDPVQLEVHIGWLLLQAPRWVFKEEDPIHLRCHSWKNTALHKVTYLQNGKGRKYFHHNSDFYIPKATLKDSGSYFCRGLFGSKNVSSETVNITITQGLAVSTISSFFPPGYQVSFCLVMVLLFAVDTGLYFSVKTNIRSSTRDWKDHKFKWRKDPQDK

Molecular target: soluble human CD16A (sCD16A) (human) (UniProt P08637)
Test: ELISA, captured sCD16A

binding: binds
B1: hu3G8VH-32/hu3G8VL-1 (antibody)
VH: QITLKESGPTLVKPTQTLTLTCTFSGFSLSTSGVGVGWIRQPPGKALEWLALIWWDDDKRYSPSLKSRLTISKDTSKNQVVLTMTNMDPVDTATYYCARINPAWFAYWGQGTLVTVSS
light: DIVMTQSPDSLAVSLGERATINCKASQSVDFDGDSFMNWYQQKPGQPPKLLIYTTSNLESGVPDRFSGSGSGTDFTLTISSLQAEDVAVYYCQQSNEDPYTFGQGTKLEIKRTVAAPSVFIFPPSDEQLKSGTASVVCLLNNFYPREAKVQWKVDNALQSGNSQESVTEQDSKDSTYSLSSTLTLSKADYEKHKVYACEVTHQGLSSPVTKSFNRGEC
